# Test results from PMC7190567.
# Target: T1, Caveolin-1 (wild type) (dog) (UniProt P33724)
# T1 sequence: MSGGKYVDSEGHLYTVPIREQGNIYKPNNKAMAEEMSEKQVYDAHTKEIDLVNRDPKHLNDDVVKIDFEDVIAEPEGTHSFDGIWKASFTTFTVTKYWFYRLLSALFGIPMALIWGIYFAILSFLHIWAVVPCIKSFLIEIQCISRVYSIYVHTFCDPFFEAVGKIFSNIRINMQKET
# Test: affinity purification with mass spectrometry; CAV1 immunoprecipitated with polyclonal anti-CAV1 on Dynabeads from B16F10(CAV1) cells (no E-cadherin); trypsin digest, nano-ESI-MS/MS on an LTQ ion trap, Mascot; only proteins unique to this sample listed
row,Binder,binding
1,"Acetylcholinesterase collagenic tail peptide (protein, UniProt O35348 30-457) VVPISAALPGLDQKKRGSHKACCLLMPPPPPLFPPPFFRGSRSPLLSPDMKNLLELEASPSPCIQGSLGSPGPPGPQGPPGLPGKTGPKGEKGDLGRPGRKGRPGPPGVPGMPGPVGWPGPEGPRGEKGDLGMMGLPGSRGPMGSKGFPGSRGEKGSRGERGDLGPKGEKGFPGFPGMLGQKGEMGPKGESGLAGHRGPTGRPGKRGKQGQKGDSGIMGPPGKPGPSGQPGRQGPPGPPGPPSAGQLVMGLKGERGFPGPPGRCLCGPPVNVNNPSYGDSMYGRGSPRVPAIFVVNNQEELERLNTQNAIAFRRDQRSLYFKDSLGWLPIQLTPFYPVGYTVKQPGTCGDGVLQPGEECDDGNPDVSDGCIDCHRAYCGDGYRHQGVEDCDGSDFGYLTCETYLPGSYGDLRCTQYCSIDSTPCRYFT",binds
2,"Sorting nexin 14 (protein, UniProt Q8BHY8 1-964) MWLRRRGLGVPSASASEGGTSSPAWTEMGSWVRTICGRLKQRLRLDVGREICRQYPLFCFLLLCLSVASLLLNRYLHVLMIFWSFVAGVVTFYCSLGPDSLLPNIFFTIKYKPKQLGLQELFPQGHSCAVCGKVKCKRHRPSLLLENYQPWLDLKVSSKVDASLSEVLELVLENFVYPWYRDVTDDESFVDELRITLRFFASVLVRRIHKVDIPSIITKKLLKAAMKHIEVIVKARQKVKNTEYLQQAALEEYGPELHVALRSRRDELQYLRKLTELLFPYILPPKATDCRSLTLLIREILSGSVLLPSLDFLADPDTVNHLLIIFIDDSPPEKATEPASPLVPFLQKFAEPRNKKPSVLKLELKQIREQQDLLFRFMNFLKQEGAVHVLQFCLTVEEFNDRILRPELSNDEMLSLHEELQKIYKTYCLDESIDKIRFDPFIVEEIQRIAEGPYIDVVKLQTMRCLFEAYEHVLSLLENVFTPMFCHSDEYFRQLLRGAESPTRNSKFNRSTQKRGESFGISRIGSKIKGVFKSTTMEGAVLPNYGVAEGEDDFIEEGIVVMEDDSPVEAVSTPNTPRNLAAWKISIPYVDFFEDPSSERKEKKERIPVFCIDVERNDRRAVGHEPEHWSVYRRYLEFYVLESKLTEFHGTFPDAQLPSKRIIGPKNYEFLKSKREEFQEYLQKLVQHPELSNSQLLADFLSPNGGETQFLDKILPDVNLGKIIKSVPGKLMKEKGQHLEPFIMSFINSCESPKPKPSRPELTILSPTSENNKKLFNDLFKNNANRAENTERKQNQNYFMEVMTVDGVYDYLMYVGRVVFQVPDWLHHLLMGTRILFKNTLEMYTDYYLQCKLEQLFQEHRLVSLITLLRDAIFCENTEPRSLQDKQKGAKQTFEEMMNYIPDLIVKCIGEETKYESIRLLFDGLQQPVLNKQLTYVLLDIVIQELFPELNKVQKEATSMTSWM",binds
3,"Magi3, Membrane associated guanylate kinse, WW and PDZ domain containing 3 (protein, UniProt Q9EQJ9 1-1476) MSKTLKKKKHWLSKVQECAVSWAGPPGDLGAEIRGGAERGEFPYLGRLRDEAGGGGGTCCVVSGKAPSPGDVLLEVNGTPVSGLTNRDTLAVIRHFREPIRLKTVKPGKVINKDLRHYLSLQFQKGSIDHKLQQVIRDNLYLRTIPCTTRAPRDGEVPGVDYNFISVEQFKALEESGALLESGTYDGNFYGTPKPPAEPSPFQPDPVDQVLFDNEFDTESQRKRTTSVSKMERMDSSLPEEEEDEDKEAVNGSGSMETREMHSETSDCWMKTVPSYNQTNSSMDFRNYMMRDENLEPLPKNWEMAYTDTGMIYFIDHNTKTTTWLDPRLCKKAKAPEDCEDGELPYGWEKIEDPQYGTYYVDHLNQKTQFENPVEEAKRKKQLGQAEIHSAKTDVERAHFTRDPSQLKGVLVRASLKKSTMGFGFTIIGGDRPDEFLQVKNVLKDGPAAQDGKIAPGDVIVDINGNCVLGHTHADVVQMFQLVPVNQYVNLTLCRGYPLPDDSEDPVVDIVAATPVINGQSLTKGETCMNTQDFKLGAMVLDQNGKSGQILASDRLNGPSESSEQRASLASSGSSQPELVTIPLIKGPKGFGFAIADSPTGQKVKMILDSQWCQGLQKGDIIKEIYHQNVQNLTHLQVVEVLKQFPVGADVPLLILRGGPCSPTKTAKTKTDTKENSGSLETINEPIPQPMPFPPSIIRSGSPKLDPSEVYLKSKTLYEDKPPNTKDLDVFLRKQESGFGFRVLGGDGPDQSIYIGAIIPLGAAEKDGRLRAADELMCIDGIPVKGKSHKQVLDLMTTAARNGHVLLTVRRKIFYGEKQPEDESHQAFSQNGSPRLNRAELPTRSAPQEAYDVTLQRKENEGFGFVILTSKSKPPPGVIPHKIGRVIDGSPADRCGGLKVGDHISAVNGQSIVDLSHDNIVQLIKDAGVTVTLTVVAEEEHHGPPSGTNSARQSPALQHRPMGQAQANHIPGDRIALEGEIGRDVCSSYRHSWSDHKHLAQPDTAVISVVGSRHNQSLGCYPVELERGPRGFGFSLRGGKEYNMGLFILRLAEDGPAIKDGRIHVGDQIVEINGEPTQGITHTRAIELIQAGGNKVLLLLRPGTGLIPDHGDWDTNSPSSSNVIYDEQPPPLPSSHSASTFEESHVPATEDSLTRVQICEKAEELKDTVQEKKSTLNGSQPEMKYQSVHKTMSKKDPPRGSGHGEKSRLKGENGVTRRGRSASPKKSVNRHSEEHLEKIPRPLKSDPKEKSRDRSLSPRKGESKGRLTIKAGSGQDPYRKDRGRSSSPKKQQKIGGNSLSNTEGKLSEAGSRRAAGHPRDSTEQLPDGREKSGVSRKDLKQSQPGKTRTKSPEKKSSKVDETSLPSKKTSSTAGRVVSEKEKGKKPTAGETSRETVEHTQISAKQLKQEAQEKTALGNADDHKGRESEVTDRCRERAGCTPQSSSLVKKAPITPGPWRVPRANKVTGTTGMADKQL",binds
4,"Syntaxin-5 (protein, UniProt Q8K1E0 1-355) MIPRKRYGSKNTDQGVYLGLSKTQVLSPATAISSSSDSTPLPTPVALVPSPPDTMSCRDRTQEFQSACKSLQSRQNGIQTSKPALHAARQCSEFTLMARRIGKDLSNTFAKLEKLTILAKRKSLFDDKAVEIEELTYIIKQDINSLNKQIAQLQDFVRAKGSQSGRHLQTHSNTIVVSLQSKLASMSNDFKSVLEVRTENLKQQRNRREQFSRAPVSALPLAPNNLGGGPIILGAESRASRDVAIDMMDPRTSQQLQLIDEQDSYIQSRADTMQNIESTIVELGSIFQQLAHMVKEQEETIQRIDENVLGAQLDVEAAHSEILKYFQSVTSNRWLMVKIFLILIVFFIIFVVFLA",binds
5,"Eukaryotic translation initiation factor 4E type 1B (protein, UniProt Q3UTA9 1-244) MNKVEGGGHKEEVVVKEKEVVKEKPSEATAEGVQAGEAKDLPGSLKTQRRKAHREHPPEVLSKLHPLQYRWVLWFFKNDRSRAWQDNLQLVTKFNTVEDFWAVYSHIKLASKLSSGCDYALFKEGILPMWEDNRNKQGGRWLLSIDKQLRHFELDRLWLETLLCLVGNCFEEYSREVCGAVVNIRTKRDKIALWTSEAEDKAGVMQIGQIYKERLGISTKTIIGYQAHADTAAKSNNLANKFVV",binds
6,"mRNA-decapping enzyme 1B (protein, UniProt Q3U564 1-578) MAAAAAGGLPGKGHDISLAALRRHDPYISRIVDVASQVALYTFGHRANEWEKTGVEGTLFVYTRSASPKHGFTIMNRLSMENRTEPITKDLDFQLQNPFLLYRNGTLSIYGIWFYDKEECQRIAKLMKNLTQSEQLKACHGAGSSPVTLSSGEGQEVDILQMLTKAKDEYTKCKTCSEPKQMTNSSAICDNPKLIKPVPVRPSSSQRLQGPAPSKTSDPEPQHLSLTALFGKQDKAPCQETVKPSRTFAHHHHHHHQQQQETRPVHHGVACSLSCEEPRKLSLPVEKQLCPAIQKLMLGSPGLHPLPQHPEQWSCKSGSPSPAGGILPGPVQLGSPWNGRVAHCTQSTCRGHKLLEQLQGAPGAVHKYNPCAPTGPAVATQVAPGQSVAQSQLVYFSGPLQPPAPGHQALRKEQGALPAQAVSLSGSQESSPTVLPTQELLRKLQVVHQEQQAAPRPALAARFPVSAQGSGTEKPLEAWVSKTASMEKQAPLLQSTCAPLRETDNGLMALGGQELPAASSNLLLPLQNWESSTVASRPLTRLQLQEALLNLIQNDDNFLSIIYEAYLFSVTQAAMRTT",binds

# No constants are given. Whether binding was seen depends on the method and setting. In cells and extracts the contact can be indirect. These calls come from enrichment with a bait or labelling near it, and not all partners need be listed.
